# In all, about 330,000 compounds went through this assay and about 7,700 (2.3%) were called active. The inconclusive results got no clear call from the source; some entries with a clear call stand among them for comparison. Calls follow the shape of the dose curve; as a rule, active = well fitted inhibition curve with a large enough effect; inconclusive = small, poorly fitted or top-dose-only effect, or effect the other way; inactive = flat fitted curve, though single readings scatter. A potency beside an inconclusive call is a rough fit, not a confirmed value.
# Assay: qHTS screen for small molecules that inhibit ELG1-dependent DNA repair in human embryonic kidney (HEK293T) cells expressing luciferase-tagged ELG1; also: nearly all actives have a fitted effect of over 55% in size
# Settings: HEK293T ELG1-luciferase reporter, luminescence, 16 h, DNA damage induced by 5-fluorouridine; activity change, negative = inhibition: at 46.1 µM (top of the series)
# How it was run: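 Step one: seed 2,000 cells per well. Step two: pin-transfer compound or DMSO alongside 5-fluorouridine. Step three: incubate 16 hr, 37 °C, 5% CO2. Step four: add ONE-Glo, wait 30 min, read luminescence.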
# % is scaled to controls: 0 for no effect and ±100 for the full control effect; potency is read from the fitted curve at half-maximal effect.
Structure (SMILES),Potency,"activity change, negative = inhibition"
O=C(O)c1nn(CCSc2ccccc2F)c(=O)c2ccccc12,"inconclusive: 16.4 µM [activator, single point]",
COc1ccc(-c2noc(-c3cccnc3)n2)cc1OC,"inconclusive: 14.6 µM [activator, partial curve]",
COCCNc1c(-c2ccc(OC)c(OC)c2)nc2ccc(Cl)cn12,"inconclusive: 16.4 µM [inhibitor, partial curve, poor fit]",
CCn1c(=S)[nH]c2ccccc21,"inconclusive: 20.6 µM [activator, single point]",
Cn1nc(C(=O)Nc2cccc(C(=O)NC3CC3)c2)c2ccccc2c1=O,,inactive: -1.68%
O=C(OCC1COc2ccccc2O1)c1ccccc1F (stereo not given),"inconclusive: 11.6 µM [activator, single point]",
ClCCN1C2=NCCCN2c2ccccc21,,inactive: 3.42%
CCOC(=O)C1(Cc2cccc(Cl)c2)CCCN(C(=O)CCSC)C1 (stereo not given),,inactive: 0.895%
Nc1nc(NCc2ccco2)nc(N2CCOCC2)c1[N+](=O)[O-],"inconclusive: 20.6 µM [inhibitor, single point]",
CC1=NN(C(N)=S)C(=O)C1N=Nc1cccc([N+](=O)[O-])c1 (stereo not given),"inconclusive: 2.91 µM [activator, single point]",
COc1cc2cc(CCCOC(=O)c3ccc(C#N)cc3)oc(=O)c2cc1OC,,inactive: 16.2%
CC1CCCC(NC(=O)COC(=O)c2ccc3ncsc3c2)C1C (stereo not given),,inactive: 13.6%
COCCn1c(CN(Cc2ccccc2)Cc2ccccc2)nc2c1c(=O)n(C)c(=O)n2C,"inconclusive: 18.4 µM [inhibitor, single point]",
COc1ccc(C(C(=O)NC2CCCCC2)N(C(=O)CCl)c2ccc(C)cc2)cc1 (stereo not given),"inconclusive: 9.2 µM [inhibitor, partial curve]",
O=C(O)CCCc1ccc2ccc3cccc4ccc1c2c34,,inactive: 0%
CCCN(CCC)C(=O)c1cc2c(=O)n3cccc(C)c3nc2s1,,inactive: -8.63%
Cc1cccc2c1ncc1c(=O)n(-c3ccccc3)[nH]c12,"inconclusive: 20.6 µM [activator, partial curve]",
COc1ccc(S(=O)(=O)NCc2ccccn2)cc1NC(=O)c1ccc(C)cc1,"inconclusive: 25.9 µM [inhibitor, single point]",
O=C(NNC(=O)NC1CCCCC1)NC1CCCCC1,"inconclusive: 2.06 µM [inhibitor, partial curve]",
O=C(CSc1ncc(-c2ccc(F)cc2)[nH]1)NCc1ccco1,"inconclusive: 20.6 µM [activator, single point]",
Cc1nn(CCc2nn[nH]n2)c2nc(-c3ccc(Br)cc3)cc(C(F)(F)F)c12,"inconclusive: 16.4 µM [inhibitor, single point]",
CC1CCCC(C)N1/N=C/c1ccc(C(=O)O)cc1 (stereo not given),,inactive: 4.04%
CCOC(=O)C1CCCN(Cc2cccs2)C1 (stereo not given),,inactive: 9.12%
O=C(Nc1ccc(Oc2c(F)c(F)c(F)c(F)c2F)cc1)OC1CCN2Cc3ccccc3N=C12 (stereo not given),"inconclusive: 29.1 µM [inhibitor, single point]",

Structure (SMILES),Potency,"activity change, negative = inhibition"
CCN(CC(=O)Nc1ccc2c(c1)OCCO2)C(=O)/C=C/c1cccc(OC)c1OC,"inconclusive: 10.3 µM [activator, single point]",
O=C(c1cnn(C(=O)c2ccco2)c1)c1cc(F)ccc1O,"inconclusive: 18.3 µM [inhibitor, single point]",
CNc1ncc(C(=O)c2ccc(Cl)cc2)s1,"inconclusive: 5.62 µM [activator, partial curve]",
C/C(=N/NC(=O)c1ccc(C)s1)c1cccc(NC(=O)c2ccoc2C)c1,"inconclusive: 18.3 µM [inhibitor, partial curve]",
Cn1c2ccccc2n2c(=O)cc(-c3ccccc3)c(C#N)c12,"inconclusive: 16.4 µM [activator, partial curve]",
Cc1cc(-c2c(C)[nH]n(-c3ccccc3)c2=O)n[nH]1,"inconclusive: 18.3 µM [inhibitor, single point]",
O=C(COc1ccccc1Cl)Nc1ccccc1C(=O)N1CCCCC1,"inconclusive: 8.2 µM [activator, partial curve]",
CC1(C)Cc2ccccc2C(NNC(=O)c2cccnc2)=N1,"inconclusive: 18.4 µM [activator, partial curve, poor fit]",
O=C(Nc1ccc(Cl)cn1)c1ccccc1[N+](=O)[O-],,inactive: -4.35%
COc1ccccc1C1C(C(N)=O)=C(C)Nc2nc(-c3ccc(Cl)cc3)nn21 (stereo not given),"inconclusive: 29.1 µM [activator, single point]",
Cn1c(C(=O)NCCN2CCCCCC2)cc2c(=O)n(C)c3ccccc3c21,,inactive: 14.3%
CCOc1ccc(/C=N/NC(=O)c2c(C)n(C)c3ccc(OC)cc23)cc1,"inconclusive: 6.51 µM [inhibitor, partial curve]",
Clc1ccc(-c2cnc3ccccc3n2)cc1,"inconclusive: 9.2 µM [activator, partial curve]",
Cc1ccc(NC(=O)CN2CCc3cc4c(cc3C2C)OCCCO4)cc1 (stereo not given),active: 18.3 µM,
Cc1c(CCC(=O)N[C@@H](CCCNC(N)=O)C(=O)O)c(=O)oc2cc3oc4c(c3cc12)CCCC4,"inconclusive: 9.2 µM [activator, partial curve]",
CCCN1CCN(C(=O)c2c(Cl)cnn2C)CC1,"inconclusive: 23.1 µM [activator, partial curve, poor fit]",
CN(C)S(=O)(=O)c1ccc(C(=O)NCCC(=O)N2CCCC2)cc1,"inconclusive: 25.9 µM [activator, partial curve, poor fit]",
O=C(C1=C[C@@H](c2ccc(C(F)(F)F)cc2)C[C@@H](OCc2ccc(CO)cc2)O1)N1CCN(Cc2ccc3c(c2)OCO3)CC1,"inconclusive: 8.2 µM [inhibitor, partial curve]",
Cc1nc2ccc(NC(=O)c3ccc(Cl)c([N+](=O)[O-])c3)cc2s1,,inactive: 11.7%
CCCCc1nc2cc(C(=O)N3CCCC3)ccc2o1,"inconclusive: 20.6 µM [activator, partial curve]",
O=C(Nc1cnc2ccccc2c1)N1CCOCC1,"inconclusive: 18.4 µM [activator, partial curve]",
COC(=O)c1ccc(NC(=O)CN2CCN(S(=O)(=O)c3cc(Cl)ccc3OC)CC2)cc1,"inconclusive: 29.1 µM [inhibitor, single point]",
COc1ccc(OC)c(NC(=O)CSc2nc3scc(C)c3c(=O)[nH]2)c1,"inconclusive: 13 µM [activator, single point]",
O=C(Cc1c(F)cccc1Cl)NNC(=O)c1cccs1,"inconclusive: 18.3 µM [activator, partial curve]",

Structure (SMILES),Potency,"activity change, negative = inhibition"
COc1cc(OC)c(OC)cc1/C=N/n1c(C)nnc1C,"inconclusive: 18.4 µM [activator, single point]",
COc1cc([N+](=O)[O-])ccc1NC(=S)NNC(=O)CCC(=O)Nc1ccccc1Cl,"inconclusive: 20.6 µM [activator, partial curve]",
Cc1noc(C)c1NC(=O)Nc1ccc2c(c1)C(=O)N([C@@H](C)CO)C[C@@H](C)[C@@H](CN(C)Cc1ccc3c(c1)OCO3)O2,"inconclusive: 18.3 µM [activator, single point]",
COc1cc(Cl)c(C)cc1NC(=O)COC(=O)C1=COCCO1,"inconclusive: 7.3 µM [activator, single point]",
COc1cccc(CN2CCNC(=O)C2CC(=O)N2CCCCO2)c1OC (stereo not given),"inconclusive: 0.82 µM [inhibitor, partial curve, poor fit]",
Clc1ccc(C[n+]2csc3ccccc32)cc1,"inconclusive: 16.4 µM [activator, partial curve, poor fit]",
COc1ccc(/C=N/n2cc(-c3ccc(OC)cc3)nc2N)cc1,,inactive: -0.754%
CC(C)(C)SCCSC1=CC(=O)CC(c2ccccc2)C1 (stereo not given),"inconclusive: 25.9 µM [activator, single point]",
O=C(CSc1ccccc1Cl)N1CCC(c2nc3ccccc3s2)CC1,,inactive: -4.36%
COc1cc(C2CC(c3ccccc3)=NN2c2ccccc2)ccc1OCC(=O)O (stereo not given),,inactive: 6.74%
CCCC(=O)Nc1ccc2nn(-c3ccc(OC)cc3)nc2c1,"inconclusive: 6.51 µM [activator, partial curve]",
COc1ccc(-c2cc(C(=O)Nc3cc(C)ccc3O)no2)cc1,"inconclusive: 10.3 µM [activator, partial curve]",
COc1ccc(C(=O)N2CCN(C3CCCCC3)CC2)cc1OC,,inactive: -0.859%
CC(C)Oc1ccc(C(=O)/C=C2/C(=O)Nc3ccccc32)cc1,,inactive: -23.5%
CCCCn1c(CN2CCN(c3cccc(Cl)c3)CC2)nc2c1c(=O)n(C)c(=O)n2C,"inconclusive: 16.4 µM [inhibitor, single point]",
Cc1cccc(S(=O)(=O)Nc2nc3ccccc3nc2NCc2ccco2)c1,,inactive: -13.2%
CCOC(=O)Cc1csc(/N=C/c2c(O)n(-c3ccccc3C(F)(F)F)c(=O)c3ccccc23)n1,active: 13 µM,
CCCCc1ccc(-n2c(Cc3cccs3)n[nH]c2=S)cc1,"inconclusive: 29.1 µM [inhibitor, single point]",
COc1ccc(N2CC(NS(=O)(=O)c3ccc4ccccc4c3)CC2=O)cc1 (stereo not given),"inconclusive: 25.9 µM [inhibitor, single point]",
O=C1C=C(NCc2ccc(Cl)c(Cl)c2)C2(CCCCC2)O1,"inconclusive: 29.1 µM [inhibitor, single point]",
COc1ccc(C)cc1S(=O)(=O)NNc1nc(C)cc(C)n1,,inactive: 1.27%
CC(=O)c1ccc(OCC(O)Cn2nnc3ccccc32)cc1 (stereo not given),"inconclusive: 10.3 µM [activator, partial curve, poor fit]",

# For convenience, some entries already given.
Structure (SMILES),Potency,"activity change, negative = inhibition"
COc1ccc(OC)c(NC(=O)CSc2nc3scc(C)c3c(=O)[nH]2)c1,"inconclusive: 13 µM [activator, single point]",
O=C(Cc1c(F)cccc1Cl)NNC(=O)c1cccs1,"inconclusive: 18.3 µM [activator, partial curve]",
COc1cc(OC)c(OC)cc1/C=N/n1c(C)nnc1C,"inconclusive: 18.4 µM [activator, single point]",
COc1cc([N+](=O)[O-])ccc1NC(=S)NNC(=O)CCC(=O)Nc1ccccc1Cl,"inconclusive: 20.6 µM [activator, partial curve]",

# From PubChem BioAssay AID504467 (National Center for Advancing Translational Sciences (NCATS), 2011)
